Assay results as given in US10604782B2, “High-throughput fluorescent screening assay for inhibitors of gram-negative bacterial iron uptake” (Kansas State University Research Foundation, priority 2015, dated 2020).
Some of these results come from one statement about several compounds together.

System: E. coli MG1655
Assay: Minimal inhibitory concentration assay in LB
Assay type: cell-based, Escherichia coli
Conditions: two-fold dilutions up to […], dash = MIC >[…], listed as ebselen

With O=c1c2ccccc2[se]n1-c1ccccc1 [Ebselen] the MIC was “up to 512 μM”.
